Assay [1] has as its target SMCHD1(24–406) (human) (UniProt A6NHR9). Put plainly: SEC; analytical gel filtration, 10/300 Superdex200 increase; 100 µl protein at 5 mg/ml in 25 mM Tris pH 7.5, 100 mM NaCl, incubated with 5 mM Mg2+/ATP for 25 min on ice; 1 mM MgCl2 and 1 mM ATP in the running buffer; monomer to dimer; both purified. In general terms: Size exclusion chromatography separates by hydrodynamic size, large species first.

Assay [2] has the same target. Put plainly: cross-linking; glutaraldehyde (final 0.0125%), protein at 2 mg/mL in 20 mM HEPES pH 7.5, 100 mM NaCl, 10% glycerol with 5 mM MgCl2 and 5 mM ATP, 40 min at room temperature, diluted 6.25-fold; SDS-PAGE; both purified.
In assay [3] the target is SMCHD1(110–580) (human) (UniProt A6NHR9). Put plainly: SEC; analytical gel filtration, 10/300 Superdex200 increase; 100 µl protein at 5 mg/ml in 25 mM Tris pH 7.5, 100 mM NaCl, incubated with 5 mM Mg2+/ATP for 25 min on ice; 1 mM MgCl2 and 1 mM ATP in the running buffer; monomer to dimer; both purified.
Assay [4] shares this target. The experiment in a line: cross-linking; glutaraldehyde (final 0.0125%), protein at 2 mg/mL in 20 mM HEPES pH 7.5, 100 mM NaCl, 10% glycerol with 5 mM MgCl2 and 5 mM ATP, 40 min at room temperature, diluted 6.25-fold; SDS-PAGE; both purified.
In assay [5] the target is SMCHD1(24–580) wild-type (human) (UniProt A6NHR9). The experiment in a line: SEC; analytical gel filtration, 10/300 Superdex200 increase; 100 µl protein at 5 mg/ml in 25 mM Tris pH 7.5, 100 mM NaCl, without Mg2+/ATP; both purified.

Results are given in words; binding and its absence hold for the method and conditions named.

B1: SMCHD1(24–406) (domain or fragment, UniProt A6NHR9 24-406)
chain: GHRTVYLFDRREKESELGDRPLQVGERSDYAGFRACVCQTLGISPEEKFVITTTSRKEITCDNFDETVKDGVTLYLLQSVNQLLLTATKERIDFLPHYDTLVKSGMYEYYASEGQNPLPFALAELIDNSLSATSRNIGVRRIQIKLLFDETQGKPAVAVIDNGRGMTSKQLNNWAVYRLSKFTRQGDFESDHSGYVRPVPVPRSLNSDISYFGVGGKQAVFFVGQSARMISKPADSQDVHELVLSKEDFEKKEKNKEAIYSGYIRNRKPSDSVHITNDDERFLHHLIIEEKEKDSFTAVVITGVQPEHIQYLKNYFHLWTRQLAHIYHYYIHGPKGNEIRTSKEVEPFNNIDIEISMFEKGKVPKIVNLREIQDDMQTLYVNT
B1: the binding result in the assay with SMCHD1(24–406) (human) [1] was “no binding (tested: 5 mg/ml loaded)”; with SMCHD1(24–406) (human) [2], “no binding (tested: 2 mg/mL, diluted 6.25-fold)”.

B2: SMCHD1(110–580) (domain or fragment, UniProt A6NHR9 110-580)
chain: ATKERIDFLPHYDTLVKSGMYEYYASEGQNPLPFALAELIDNSLSATSRNIGVRRIQIKLLFDETQGKPAVAVIDNGRGMTSKQLNNWAVYRLSKFTRQGDFESDHSGYVRPVPVPRSLNSDISYFGVGGKQAVFFVGQSARMISKPADSQDVHELVLSKEDFEKKEKNKEAIYSGYIRNRKPSDSVHITNDDERFLHHLIIEEKEKDSFTAVVITGVQPEHIQYLKNYFHLWTRQLAHIYHYYIHGPKGNEIRTSKEVEPFNNIDIEISMFEKGKVPKIVNLREIQDDMQTLYVNTAADSFEFKAHVEGDGVVEGIIRYHPFLYDRETYPDDPCFPSKLKDEDDEDDCFILEKAARGKRPIFECFWNGRLIPYTSVEDFDWCTPPKKRGLAPIECYNRISGALFTNDKFQVSTNKLTFMDLELKLKDKNTLFTRILNGQEQRMKIDREFALWLKDCHEKYDKQIKFTLFK
Consider B2, for which the binding result with SMCHD1(110–580) (human) [3] was “no binding (tested: 5 mg/ml loaded)”; with SMCHD1(110–580) (human) [4], “no binding (tested: 2 mg/mL, diluted 6.25-fold)”.

B3: SMCHD1(24–580) wild-type (domain or fragment, UniProt A6NHR9 24-580)
chain: GHRTVYLFDRREKESELGDRPLQVGERSDYAGFRACVCQTLGISPEEKFVITTTSRKEITCDNFDETVKDGVTLYLLQSVNQLLLTATKERIDFLPHYDTLVKSGMYEYYASEGQNPLPFALAELIDNSLSATSRNIGVRRIQIKLLFDETQGKPAVAVIDNGRGMTSKQLNNWAVYRLSKFTRQGDFESDHSGYVRPVPVPRSLNSDISYFGVGGKQAVFFVGQSARMISKPADSQDVHELVLSKEDFEKKEKNKEAIYSGYIRNRKPSDSVHITNDDERFLHHLIIEEKEKDSFTAVVITGVQPEHIQYLKNYFHLWTRQLAHIYHYYIHGPKGNEIRTSKEVEPFNNIDIEISMFEKGKVPKIVNLREIQDDMQTLYVNTAADSFEFKAHVEGDGVVEGIIRYHPFLYDRETYPDDPCFPSKLKDEDDEDDCFILEKAARGKRPIFECFWNGRLIPYTSVEDFDWCTPPKKRGLAPIECYNRISGALFTNDKFQVSTNKLTFMDLELKLKDKNTLFTRILNGQEQRMKIDREFALWLKDCHEKYDKQIKFTLFK
Take B3: the binding result in assay [5] is listed as “no binding (condition: without Mg2+/ATP)”.

Values taken from publication PMC6620310, “A ubiquitin-like domain is required for stabilizing the N-terminal ATPase module of human SMCHD1” (Communications Biology, 2019).
